The values below come from US20220074941A1, “HSP90 COMBINATION THERAPY” (Sloan-Kettering Institute for Cancer Research, priority 2011, published 2022).

For data set [1], the system named is Hsp90 complexes in K562 cell extract. Nature of the data set: Nano-LC-MS/MS of PU-beads pull-downs. The class given is binding. The note with it: protein identified in PU-beads pull-down of K562 extract, QSTAR-Elite QTof MS. Summed up:
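Proteins were identified by data-dependent nano LC-MS/MS (QTof, ESI) and Mascot searching (p<0.05), then reported as spectral counts and coverage via Scaffold. Inputs were PU-bead versus control-bead pull-downs from lysate pre-cleared with control beads overnight at 4 °C, eluted by boiling in 2% SDS.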

Data set [2] deals with Hsp90 complexes in Mia-PaCa-2 cell extract. Nature of the data set: Nano-LC-MS/MS of PU-beads pull-downs. The note with it: protein identified in PU-beads pull-down of Mia-Paca 2 extract; QSTAR-Elite QTof MS. It is filed as binding, human. Summed up:
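They came from PU-bead pull-downs of pre-cleared lysates (control beads, overnight, 4 °C), eluted by boiling in 2% SDS, gel-separated and run by data-dependent nano-ESI QTof MS/MS.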

B1: CARM1 (protein, UniProt Q86X55 2-608, looked up)
Histone-arginine …: AAAAAAVGPGAGGAGSAVPGGAGPCATVSVFPGARLLTIGDANGEIQRHAEQQALRLEVRAGPDSAGIALYSHEDVCVFKCSVSRETECSRVGKQSFIITLGCNSVLIQFATPNDFCSFYNILKTCRGHTLERSVFSERTEESSAVQYFQFYGYLSQQQNMMQDYVRTGTYQRAILQNHTDFKDKIVLDVGCGSGILSFFAAQAGARKIYAVEASTMAQHAEVLVKSNNLTDRIVVIPGKVEEVSLPEQVDIIISEPMGYMLFNERMLESYLHAKKYLKPSGNMFPTIGDVHLAPFTDEQLYMEQFTKANFWYQPSFHGVDLSALRGAAVDEYFRQPVVDTFDIRILMAKSVKYTVNFLEAKEGDLHRIEIPFKFHMLHSGLVHGLAFWFDVAFIGSIMTVWLSTAPTEPLTHWYQVRCLFQSPLFAKAGDTLSGTCLLIANKRQSYDISIVAQVDQTGSKSSNLLDLKNPFFRYTGTTPSPPPGSHYTSPSENMWNTGSTYNLSSGMAVAGMPTAYDLSSVIASGSSVGHNNLIPLANTGIVNHTHSRMGSIMSTGIVQGSSGAQGSGGGSTSAHYAVNSQFTMGGPAISMASPMSIPTNTMHYGS
On to B1, for which, in data set [1], the “Number of Assigned Spectra, K562 Prep 1” value turned out to be 12 and the “Number of Assigned Spectra, K562 Prep 2” value is 16. In addition, the “Number of Assigned Spectra, Mia-Paca 2” value in data set [2] is given as 9.

B2: CAMK2G (protein, UniProt Q13555 1-558, looked up)
Calcium/calmodulin-dependent …: MATTATCTRFTDDYQLFEELGKGAFSVVRRCVKKTSTQEYAAKIINTKKLSARDHQKLEREARICRLLKHPNIVRLHDSISEEGFHYLVFDLVTGGELFEDIVAREYYSEADASHCIHQILESVNHIHQHDIVHRDLKPENLLLASKCKGAAVKLADFGLAIEVQGEQQAWFGFAGTPGYLSPEVLRKDPYGKPVDIWACGVILYILLVGYPPFWDEDQHKLYQQIKAGAYDFPSPEWDTVTPEAKNLINQMLTINPAKRITADQALKHPWVCQRSTVASMMHRQETVECLRKFNARRKLKGAILTTMLVSRNFSAAKSLLNKKSDGGVKKRKSSSSVHLMPQSNNKNSLVSPAQEPAPLQTAMEPQTTVVHNATDGIKGSTESCNTTTEDEDLKGRVPEGRSSRDRTAPSAGMQPQPSLCSSAMRKQEIIKITEQLIEAINNGDFEAYTKICDPGLTSFEPEALGNLVEGMDFHKFYFENLLSKNSKPIHTTILNPHVHVIGEDAACIAYIRLTQYIDGQGRPRTSQSEETRVWHRRDGKWLNVHYHCSGAPAAPLQ
For the molecule B2, in data set [1], the “Number of Assigned Spectra, K562 Prep 1” value is given as 2 and the “Number of Assigned Spectra, K562 Prep 2” value is given as 3. Further, the “Number of Assigned Spectra, Mia-Paca 2” value in data set [2] is reported as 0.

B3: CAMK1 (protein, UniProt Q14012 1-370, looked up)
Calcium/calmodulin-dependent …: MLGAVEGPRWKQAEDIRDIYDFRDVLGTGAFSEVILAEDKRTQKLVAIKCIAKEALEGKEGSMENEIAVLHKIKHPNIVALDDIYESGGHLYLIMQLVSGGELFDRIVEKGFYTERDASRLIFQVLDAVKYLHDLGIVHRDLKPENLLYYSLDEDSKIMISDFGLSKMEDPGSVLSTACGTPGYVAPEVLAQKPYSKAVDCWSIGVIAYILLCGYPPFYDENDAKLFEQILKAEYEFDSPYWDDISDSAKDFIRHLMEKDPEKRFTCEQALQHPWIAGDTALDKNIHQSVSEQIKKNFAKSKWKQAFNATAVVRHMRKLQLGTSQEGQGQTASHGELLTPVAGGPAAGCCCRDCCVEPGTELSPTLPHQL
Take B3: in data set [1], the “Number of Assigned Spectra, K562 Prep 1” value was 0 and the “Number of Assigned Spectra, K562 Prep 2” value came to 0. Further, the “Number of Assigned Spectra, Mia-Paca 2” value in data set [2] stood at 3.

B4: TYK2 (protein, UniProt P29597 1-1187, looked up)
Non-receptor tyrosine-protein …: MPLRHWGMARGSKPVGDGAQPMAAMGGLKVLLHWAGPGGGEPWVTFSESSLTAEEVCIHIAHKVGITPPCFNLFALFDAQAQVWLPPNHILEIPRDASLMLYFRIRFYFRNWHGMNPREPAVYRCGPPGTEASSDQTAQGMQLLDPASFEYLFEQGKHEFVNDVASLWELSTEEEIHHFKNESLGMAFLHLCHLALRHGIPLEEVAKKTSFKDCIPRSFRRHIRQHSALTRLRLRNVFRRFLRDFQPGRLSQQMVMVKYLATLERLAPRFGTERVPVCHLRLLAQAEGEPCYIRDSGVAPTDPGPESAAGPPTHEVLVTGTGGIQWWPVEEEVNKEEGSSGSSGRNPQASLFGKKAKAHKAVGQPADRPREPLWAYFCDFRDITHVVLKEHCVSIHRQDNKCLELSLPSRAAALSFVSLVDGYFRLTADSSHYLCHEVAPPRLVMSIRDGIHGPLLEPFVQAKLRPEDGLYLIHWSTSHPYRLILTVAQRSQAPDGMQSLRLRKFPIEQQDGAFVLEGWGRSFPSVRELGAALQGCLLRAGDDCFSLRRCCLPQPGETSNLIIMRGARASPRTLNLSQLSFHRVDQKEITQLSHLGQGTRTNVYEGRLRVEGSGDPEEGKMDDEDPLVPGRDRGQELRVVLKVLDPSHHDIALAFYETASLMSQVSHTHLAFVHGVCVRGPENIMVTEYVEHGPLDVWLRRERGHVPMAWKMVVAQQLASALSYLENKNLVHGNVCGRNILLARLGLAEGTSPFIKLSDPGVGLGALSREERVERIPWLAPECLPGGANSLSTAMDKWGFGATLLEICFDGEAPLQSRSPSEKEHFYQRQHRLPEPSCPQLATLTSQCLTYEPTQRPSFRTILRDLTRLQPHNLADVLTVNPDSPASDPTVFHKRYLKKIRDLGEGHFGKVSLYCYDPTNDGTGEMVAVKALKADCGPQHRSGWKQEIDILRTLYHEHIIKYKGCCEDQGEKSLQLVMEYVPLGSLRDYLPRHSIGLAQLLLFAQQICEGMAYLHAQHYIHRDLAARNVLLDNDRLVKIGDFGLAKAVPEGHEYYRVREDGDSPVFWYAPECLKEYKFYYASDVWSFGVTLYELLTHCDSSQSPPTKFLELIGIAQGQMTVLRLTELLERGERLPRPDKCPCEVYHLMKNCWETEASFRPTFENLIPILKTVHEKYQGQAPSVFSVC
For the molecule B4, in data set [1], the “Number of Assigned Spectra, K562 Prep 1” value turned out to be 2 and the “Number of Assigned Spectra, K562 Prep 2” value was determined as 0. In data set [2], the “Number of Assigned Spectra, Mia-Paca 2” value is on record as 0.
